Measured data: PubChem BioAssay AID1259254 (NCATS, 2017)

- Test: 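Gene knock-downs that lead to re-replication, shown by excess G2 DNA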 (primary screen)
- System: human HCT116 colorectal cancer cells
- Reagent: single siRNA against human genes
- Timing: 3 days
- Measurement: 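Nuclei stained with Hoechst and imaged; cell-cycle phase assigned by DNA content; G2 share scaled per plate, non-targeting siRNA 0%, GMNN siRNA 100%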
- Scale: G2 robust z-score: higher = more G2 cells, more excess DNA replication
- Hit rule: 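An siRNA counts as active if its G2 robust z-score lies at least 5 MADs above the screen median; here such calls match roughly 38% of GMNN control or more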
The deposit covers about 59,000 reagents; this is a part drawn at random. Of all reagents, about 1,550 (2.6%) were called active. 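G2 share is only a proxy for re-replication; each gene was hit by three separate siRNAs, and active genes were retested.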 Unmarked entries are inactive. The numbers tell different reagents against one gene apart. Not all columns of the deposit are shown. Reagent sequences are not shown. Not given: the amount of reagent.

target,reagent no.,G2 robust z-score
IFI44 (interferon induced protein 44),1,0.302
IFI44 (interferon induced protein 44),2,-0.592
IFI44 (interferon induced protein 44),3,3.39
HSPA6 (heat shock protein family A (Hsp70) member 6),1,0.113
HSPA6 (heat shock protein family A (Hsp70) member 6),2,-0.0567
HSPA6 (heat shock protein family A (Hsp70) member 6),3,-0.224
CCDC27 (coiled-coil domain containing 27),1,-0.958
CCDC27 (coiled-coil domain containing 27),2,-0.38
CCDC27 (coiled-coil domain containing 27),3,-0.399
CYP2S1 (cytochrome P450 family 2 subfamily S member 1),1,0.267
CYP2S1 (cytochrome P450 family 2 subfamily S member 1),2,0.317
CYP2S1 (cytochrome P450 family 2 subfamily S member 1),3,1.67
ATXN10 (ataxin 10),1,-0.409
ATXN10 (ataxin 10),2,4.52
ATXN10 (ataxin 10),3,1.7
UQCRC2 (ubiquinol-cytochrome c reductase core protein 2),1,-0.514
UQCRC2 (ubiquinol-cytochrome c reductase core protein 2),2,0.409
UQCRC2 (ubiquinol-cytochrome c reductase core protein 2),3,-0.221
LINC01300 (long independently transcribed non-coding RNA 1300),1,1.26
LINC01300 (long independently transcribed non-coding RNA 1300),2,-0.647
LINC01300 (long independently transcribed non-coding RNA 1300),3,2.73
DOLPP1 (dolichyldiphosphatase 1),1,-0.65
DOLPP1 (dolichyldiphosphatase 1),2,-1.22
DOLPP1 (dolichyldiphosphatase 1),3,-0.604
LINC01446 (long independently transcribed non-coding RNA 1446),1,-0.468
LINC01446 (long independently transcribed non-coding RNA 1446),2,-0.604
LINC01446 (long independently transcribed non-coding RNA 1446),3,-1.02
LGALS13 (galectin 13),1,6.47 (active)
LGALS13 (galectin 13),2,0.0947
LGALS13 (galectin 13),3,-0.495

Laid out differently: entries from further up.
LINC01446 (long independently transcribed non-coding RNA 1446) #1: G2 robust z-score = -0.468
LINC01446 (long independently transcribed non-coding RNA 1446) #2: G2 robust z-score = -0.604
LINC01446 (long independently transcribed non-coding RNA 1446) #3: G2 robust z-score = -1.02
